These are yes or no findings as the source states them, for the method shown. In cells and extracts the contact can be indirect. Some binding calls cover weakened binding; strength is not graded here. For some of these results: Where a sequence is shown, tags or fusion partners need not be part of it.

By UniProt entry, the sequences of proteins in these tests, tags left out. Residues count along the entry.
UniProt Q15303, residues 26-1308: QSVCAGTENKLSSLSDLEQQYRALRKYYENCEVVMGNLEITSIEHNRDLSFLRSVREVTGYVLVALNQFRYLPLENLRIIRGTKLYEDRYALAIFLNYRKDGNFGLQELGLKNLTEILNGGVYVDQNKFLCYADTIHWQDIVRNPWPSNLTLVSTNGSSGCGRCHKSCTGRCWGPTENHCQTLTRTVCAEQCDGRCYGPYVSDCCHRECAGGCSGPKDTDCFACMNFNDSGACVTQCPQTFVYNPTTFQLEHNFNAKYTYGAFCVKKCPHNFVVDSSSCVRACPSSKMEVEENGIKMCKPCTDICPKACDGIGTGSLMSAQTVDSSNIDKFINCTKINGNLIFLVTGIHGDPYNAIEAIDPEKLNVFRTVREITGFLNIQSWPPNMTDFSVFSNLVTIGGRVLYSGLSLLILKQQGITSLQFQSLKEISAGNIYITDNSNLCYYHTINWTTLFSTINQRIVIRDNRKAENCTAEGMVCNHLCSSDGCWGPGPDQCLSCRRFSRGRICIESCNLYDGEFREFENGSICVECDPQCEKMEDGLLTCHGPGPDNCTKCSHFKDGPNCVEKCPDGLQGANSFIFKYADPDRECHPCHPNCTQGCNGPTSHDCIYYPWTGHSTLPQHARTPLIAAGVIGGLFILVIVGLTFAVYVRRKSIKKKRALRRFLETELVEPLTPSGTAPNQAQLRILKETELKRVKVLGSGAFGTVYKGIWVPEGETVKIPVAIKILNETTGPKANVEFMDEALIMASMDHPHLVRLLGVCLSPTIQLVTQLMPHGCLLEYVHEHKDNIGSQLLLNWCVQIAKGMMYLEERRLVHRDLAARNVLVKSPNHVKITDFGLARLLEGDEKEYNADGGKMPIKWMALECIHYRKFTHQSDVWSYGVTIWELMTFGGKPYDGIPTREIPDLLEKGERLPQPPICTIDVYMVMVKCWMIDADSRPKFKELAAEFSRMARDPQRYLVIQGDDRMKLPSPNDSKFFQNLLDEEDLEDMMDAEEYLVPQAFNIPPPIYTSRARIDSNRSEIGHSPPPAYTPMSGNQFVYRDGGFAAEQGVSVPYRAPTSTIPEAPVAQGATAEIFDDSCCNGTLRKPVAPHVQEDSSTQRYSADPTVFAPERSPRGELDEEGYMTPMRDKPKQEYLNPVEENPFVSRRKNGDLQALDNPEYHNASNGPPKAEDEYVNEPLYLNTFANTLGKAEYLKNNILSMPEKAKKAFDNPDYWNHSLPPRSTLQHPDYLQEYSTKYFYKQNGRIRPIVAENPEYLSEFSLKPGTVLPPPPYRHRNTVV

Data on four molecules can be found in article PMC8152081.

For assay [1], the target named is T1, KITENIN (in Caco2 cells, immunoprecipitation step of the compound screen) (UniProt Q8TAA9).
T1 sequence: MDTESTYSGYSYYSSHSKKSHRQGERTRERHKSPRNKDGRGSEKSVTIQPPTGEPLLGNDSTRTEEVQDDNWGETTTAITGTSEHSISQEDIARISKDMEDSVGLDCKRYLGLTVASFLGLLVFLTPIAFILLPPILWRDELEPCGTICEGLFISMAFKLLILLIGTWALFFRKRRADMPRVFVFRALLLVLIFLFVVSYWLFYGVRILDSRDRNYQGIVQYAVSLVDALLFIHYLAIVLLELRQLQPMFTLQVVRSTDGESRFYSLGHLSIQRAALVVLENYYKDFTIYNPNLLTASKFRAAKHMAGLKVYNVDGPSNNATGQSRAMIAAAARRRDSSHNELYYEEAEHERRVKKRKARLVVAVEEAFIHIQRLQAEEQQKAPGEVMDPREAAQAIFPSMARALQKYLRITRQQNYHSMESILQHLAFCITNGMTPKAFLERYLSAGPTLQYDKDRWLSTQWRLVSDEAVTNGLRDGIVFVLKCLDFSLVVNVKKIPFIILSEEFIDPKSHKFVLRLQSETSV
In words: co-IP; immunoprecipitation in Caco2 CRC cells, step of the compound screen for compounds that interfere with the KITENIN–ErbB4 interaction.

Assay [2] deals with T2, KH-type splicing regulatory protein (KSRP) (human (endogenous; immunoprecipitations used 293 T, Caco2 or HCT116 lysates)) (UniProt Q92945).
T2 sequence: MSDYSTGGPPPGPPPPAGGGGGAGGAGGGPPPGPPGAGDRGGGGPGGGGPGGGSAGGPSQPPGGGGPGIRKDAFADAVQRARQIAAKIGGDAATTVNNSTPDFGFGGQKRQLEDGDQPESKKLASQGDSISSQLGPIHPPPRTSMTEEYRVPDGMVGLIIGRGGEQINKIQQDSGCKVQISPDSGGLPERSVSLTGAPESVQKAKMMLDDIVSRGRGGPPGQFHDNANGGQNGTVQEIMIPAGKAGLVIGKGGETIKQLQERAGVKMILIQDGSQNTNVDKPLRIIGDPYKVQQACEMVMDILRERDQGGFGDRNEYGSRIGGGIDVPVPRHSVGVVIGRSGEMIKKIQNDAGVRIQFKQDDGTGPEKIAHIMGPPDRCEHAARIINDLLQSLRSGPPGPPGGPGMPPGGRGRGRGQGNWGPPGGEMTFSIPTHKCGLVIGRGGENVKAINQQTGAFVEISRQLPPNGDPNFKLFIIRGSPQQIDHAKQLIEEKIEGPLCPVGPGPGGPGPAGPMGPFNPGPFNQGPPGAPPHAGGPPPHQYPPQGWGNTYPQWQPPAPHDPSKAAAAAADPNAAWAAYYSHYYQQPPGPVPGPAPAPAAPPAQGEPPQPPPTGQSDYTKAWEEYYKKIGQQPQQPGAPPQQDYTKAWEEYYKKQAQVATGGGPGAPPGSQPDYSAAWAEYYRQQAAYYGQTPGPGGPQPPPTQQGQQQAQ
In words: co-IP; IP with KSRP-specific antibody, blot for KITENIN; with or without DKC1125 (0.5 μM).

The target of assay [3] is T3, full-length KSRP-myc (WT) (UniProt Q92945).
T3 sequence: T2 sequence
In words: co-IP; Caco2 cells transfected with myc-tagged KSRP (WT, Δ12, Δ34, ΔC) and GFP-tagged RACK1 or V5-tagged KITENIN.

Assay [4] concerns the target T4, KH-type splicing regulatory protein (KSRP), endogenous in Caco2 cells (human (endogenous in Caco2)) (UniProt Q92945).
T4 sequence: T2 sequence
In words: co-IP; Caco2 cells stably expressing EV or KITENIN-V5, cytoplasmic–nuclear fractionation, vehicle or DKC1125 (0.5 μM); precipitates immunoblotted to detect KSRP-Dvl binding. Background: A western blot detects proteins with antibodies after separation by electrophoresis.

Take “ErbB4 (in Caco2 cells, immunoprecipitation step of the compound screen) (from UniProt Q15303 26-1308) (receptor)”: in assay [1], the binding entry is on record as “binds”.

B1: KITENIN (KAI1 C-terminal interacting tetraspanin, Vangl1) (protein, UniProt Q8TAA9 1-524)
chain: T1 sequence
As for B1, the binding result in assay [2] was “binds”.

B2: KITENIN-V5 (V5-tagged KITENIN) (protein, UniProt Q8TAA9 1-524)
chain: T1 sequence
With B2, the binding result in assay [3] is on record as “binds”.

B3: Dishevelled 1 (Dvl1), endogenous in Caco2 cells (protein, UniProt O14640 1-695)
chain: MAETKIIYHMDEEETPYLVKLPVAPERVTLADFKNVLSNRPVHAYKFFFKSMDQDFGVVKEEIFDDNAKLPCFNGRVVSWLVLAEGAHSDAGSQGTDSHTDLPPPLERTGGIGDSRPPSFHPNVASSRDGMDNETGTESMVSHRRERARRRNREEAARTNGHPRGDRRRDVGLPPDSASTALSSELESSSFVDSDEDGSTSRLSSSTEQSTSSRLIRKHKRRRRKQRLRQADRASSFSSITDSTMSLNIVTVTLNMERHHFLGISIVGQSNDRGDGGIYIGSIMKGGAVAADGRIEPGDMLLQVNDVNFENMSNDDAVRVLREIVSQTGPISLTVAKCWDPTPRSYFTVPRADPVRPIDPAAWLSHTAALTGALPRYGTSPCSSAVTRTSSSSLTSSVPGAPQLEEAPLTVKSDMSAVVRVMQLPDSGLEIRDRMWLKITIANAVIGADVVDWLYTHVEGFKERREARKYASSLLKHGFLRHTVNKITFSEQCYYVFGDLCSNLATLNLNSGSSGTSDQDTLAPLPHPAAPWPLGQGYPYQYPGPPPCFPPAYQDPGFSYGSGSTGSQQSEGSKSSGSTRSSRRAPGREKERRAAGAGGSGSESDHTAPSGVGSSWRERPAGQLSRGSSPRSQASATAPGLPPPHPTTKAYTVVGGPPGGPPVRELAAVPPELTGSRQSFQKAMGNPCEFFVDIM
For the molecule B3, in assay [4], the binding result is reported as “binds”.
